{"source": "patent US12247972B2", "about": "(priority 2018, dated 2025)", "system": "CHO cells transiently expressing SCN5A (Nav1.5), CACNα1C (Cav1.2), KCNH2 and ChRWR"}
{"smiles": "CCN(CC)CC(=O)Nc1c(C)cccc1C", "note": "[Lidocaine]", "values": [{"measurement": "effect on action potential (sodium channel suppression)", "result": "all action potentials disappeared"}]}
